# Experimental data reported in publication PMC12974444.
# These are yes or no findings as the source states them, for the method shown. Binding seen in cells or lysates may run through a third protein. A result given as binding can be weak or reduced; the word gives no strength. Where a sequence is shown, tags or fusion partners need not be part of it.
# Biological target: T1, endogenous FLAG-Strep-Med19 fusion (rat (endogenous in INS-1)) (UniProt D3ZAP1)
# T1 sequence: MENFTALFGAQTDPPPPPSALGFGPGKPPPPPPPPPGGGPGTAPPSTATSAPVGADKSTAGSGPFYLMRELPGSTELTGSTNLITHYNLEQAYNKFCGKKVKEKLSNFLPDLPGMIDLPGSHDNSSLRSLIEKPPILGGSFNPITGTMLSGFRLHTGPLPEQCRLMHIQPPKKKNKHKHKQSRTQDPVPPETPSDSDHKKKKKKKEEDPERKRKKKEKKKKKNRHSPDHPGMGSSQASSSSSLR
# Assay: co-IP; FLAG immunoprecipitation of endogenous FLAG-Med19 from INS-1 extracts (Med14 WT and Med14 S983A Crispr knock-in lines; control, FSK, H-89, Ex-4, Semaglutide or Tirzepatide treatment), western blot of the immunoprecipitates
row,binding,Substance
1,binds,Med12 (rat (endogenous in INS-1))
2,binds,Med26 (rat (endogenous in INS-1))
3,binds,Med30 (rat (endogenous in INS-1))
